Results as given in the supplement of paper PMC10849652.
Some of the results follow.

Amino acid sequences for entries named in this document (tags omitted). A change or cut given only in a name is not applied to a line headed by its entry.
UniProt Q8WUR7: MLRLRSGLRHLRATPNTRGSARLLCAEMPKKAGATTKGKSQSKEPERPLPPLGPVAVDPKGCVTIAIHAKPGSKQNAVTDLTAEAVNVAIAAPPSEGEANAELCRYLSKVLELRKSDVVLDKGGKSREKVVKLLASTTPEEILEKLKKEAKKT
UniProt Q8N999, whole entry, looked up: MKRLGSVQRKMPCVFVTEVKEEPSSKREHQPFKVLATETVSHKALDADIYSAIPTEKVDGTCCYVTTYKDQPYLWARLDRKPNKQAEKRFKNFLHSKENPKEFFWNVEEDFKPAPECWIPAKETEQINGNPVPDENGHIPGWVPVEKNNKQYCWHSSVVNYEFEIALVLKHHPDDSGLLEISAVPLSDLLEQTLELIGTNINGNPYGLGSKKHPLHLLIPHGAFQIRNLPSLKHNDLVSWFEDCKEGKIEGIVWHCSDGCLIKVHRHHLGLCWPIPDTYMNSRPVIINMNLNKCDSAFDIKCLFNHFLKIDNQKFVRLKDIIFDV
UniProt O75808: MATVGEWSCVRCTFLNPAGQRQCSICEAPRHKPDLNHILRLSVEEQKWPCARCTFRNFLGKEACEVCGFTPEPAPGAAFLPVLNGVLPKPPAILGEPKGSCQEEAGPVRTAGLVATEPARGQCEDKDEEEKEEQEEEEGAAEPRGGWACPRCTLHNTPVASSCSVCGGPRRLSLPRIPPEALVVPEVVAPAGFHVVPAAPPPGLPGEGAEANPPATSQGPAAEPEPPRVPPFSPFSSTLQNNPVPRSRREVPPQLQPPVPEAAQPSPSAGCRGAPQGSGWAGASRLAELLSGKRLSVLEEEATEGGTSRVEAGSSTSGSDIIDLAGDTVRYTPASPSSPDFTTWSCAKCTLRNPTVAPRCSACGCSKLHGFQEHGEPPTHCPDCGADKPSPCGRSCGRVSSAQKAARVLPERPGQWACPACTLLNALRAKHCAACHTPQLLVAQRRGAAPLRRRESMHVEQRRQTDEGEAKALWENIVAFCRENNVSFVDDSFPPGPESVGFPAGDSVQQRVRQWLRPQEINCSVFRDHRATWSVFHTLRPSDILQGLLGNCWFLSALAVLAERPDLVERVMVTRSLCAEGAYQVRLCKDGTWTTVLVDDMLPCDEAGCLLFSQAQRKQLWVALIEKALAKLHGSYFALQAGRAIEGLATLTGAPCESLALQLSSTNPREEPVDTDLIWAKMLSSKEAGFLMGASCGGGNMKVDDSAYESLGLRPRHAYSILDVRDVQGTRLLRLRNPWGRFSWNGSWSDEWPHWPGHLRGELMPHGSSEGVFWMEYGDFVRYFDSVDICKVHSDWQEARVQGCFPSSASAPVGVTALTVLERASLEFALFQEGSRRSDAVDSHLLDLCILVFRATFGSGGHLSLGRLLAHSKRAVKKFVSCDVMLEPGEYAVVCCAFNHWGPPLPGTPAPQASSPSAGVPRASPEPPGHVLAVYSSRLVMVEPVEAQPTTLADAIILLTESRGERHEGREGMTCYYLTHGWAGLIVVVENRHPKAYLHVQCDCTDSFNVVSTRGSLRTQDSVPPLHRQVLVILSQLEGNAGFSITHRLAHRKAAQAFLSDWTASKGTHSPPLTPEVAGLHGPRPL
UniProt Q8WUQ7: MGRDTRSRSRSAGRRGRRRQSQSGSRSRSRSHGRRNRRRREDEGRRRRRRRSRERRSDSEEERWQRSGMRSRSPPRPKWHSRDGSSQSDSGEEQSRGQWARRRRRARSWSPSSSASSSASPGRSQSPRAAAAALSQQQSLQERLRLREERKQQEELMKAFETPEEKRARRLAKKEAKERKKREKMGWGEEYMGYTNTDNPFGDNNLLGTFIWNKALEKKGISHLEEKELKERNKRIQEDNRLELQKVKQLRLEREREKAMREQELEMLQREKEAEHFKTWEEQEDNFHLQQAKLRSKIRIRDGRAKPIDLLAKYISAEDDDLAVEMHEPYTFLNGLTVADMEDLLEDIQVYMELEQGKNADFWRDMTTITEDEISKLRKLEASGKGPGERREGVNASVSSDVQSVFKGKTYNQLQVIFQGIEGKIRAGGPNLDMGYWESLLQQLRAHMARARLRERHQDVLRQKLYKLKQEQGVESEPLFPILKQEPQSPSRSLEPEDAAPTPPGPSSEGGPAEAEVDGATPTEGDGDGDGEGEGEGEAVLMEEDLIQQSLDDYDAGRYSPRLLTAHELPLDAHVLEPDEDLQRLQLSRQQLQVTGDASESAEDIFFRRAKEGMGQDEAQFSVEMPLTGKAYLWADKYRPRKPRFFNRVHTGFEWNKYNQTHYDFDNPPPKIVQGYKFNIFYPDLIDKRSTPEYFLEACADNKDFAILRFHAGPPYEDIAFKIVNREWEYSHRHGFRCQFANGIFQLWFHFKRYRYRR
UniProt P01024, whole entry, looked up: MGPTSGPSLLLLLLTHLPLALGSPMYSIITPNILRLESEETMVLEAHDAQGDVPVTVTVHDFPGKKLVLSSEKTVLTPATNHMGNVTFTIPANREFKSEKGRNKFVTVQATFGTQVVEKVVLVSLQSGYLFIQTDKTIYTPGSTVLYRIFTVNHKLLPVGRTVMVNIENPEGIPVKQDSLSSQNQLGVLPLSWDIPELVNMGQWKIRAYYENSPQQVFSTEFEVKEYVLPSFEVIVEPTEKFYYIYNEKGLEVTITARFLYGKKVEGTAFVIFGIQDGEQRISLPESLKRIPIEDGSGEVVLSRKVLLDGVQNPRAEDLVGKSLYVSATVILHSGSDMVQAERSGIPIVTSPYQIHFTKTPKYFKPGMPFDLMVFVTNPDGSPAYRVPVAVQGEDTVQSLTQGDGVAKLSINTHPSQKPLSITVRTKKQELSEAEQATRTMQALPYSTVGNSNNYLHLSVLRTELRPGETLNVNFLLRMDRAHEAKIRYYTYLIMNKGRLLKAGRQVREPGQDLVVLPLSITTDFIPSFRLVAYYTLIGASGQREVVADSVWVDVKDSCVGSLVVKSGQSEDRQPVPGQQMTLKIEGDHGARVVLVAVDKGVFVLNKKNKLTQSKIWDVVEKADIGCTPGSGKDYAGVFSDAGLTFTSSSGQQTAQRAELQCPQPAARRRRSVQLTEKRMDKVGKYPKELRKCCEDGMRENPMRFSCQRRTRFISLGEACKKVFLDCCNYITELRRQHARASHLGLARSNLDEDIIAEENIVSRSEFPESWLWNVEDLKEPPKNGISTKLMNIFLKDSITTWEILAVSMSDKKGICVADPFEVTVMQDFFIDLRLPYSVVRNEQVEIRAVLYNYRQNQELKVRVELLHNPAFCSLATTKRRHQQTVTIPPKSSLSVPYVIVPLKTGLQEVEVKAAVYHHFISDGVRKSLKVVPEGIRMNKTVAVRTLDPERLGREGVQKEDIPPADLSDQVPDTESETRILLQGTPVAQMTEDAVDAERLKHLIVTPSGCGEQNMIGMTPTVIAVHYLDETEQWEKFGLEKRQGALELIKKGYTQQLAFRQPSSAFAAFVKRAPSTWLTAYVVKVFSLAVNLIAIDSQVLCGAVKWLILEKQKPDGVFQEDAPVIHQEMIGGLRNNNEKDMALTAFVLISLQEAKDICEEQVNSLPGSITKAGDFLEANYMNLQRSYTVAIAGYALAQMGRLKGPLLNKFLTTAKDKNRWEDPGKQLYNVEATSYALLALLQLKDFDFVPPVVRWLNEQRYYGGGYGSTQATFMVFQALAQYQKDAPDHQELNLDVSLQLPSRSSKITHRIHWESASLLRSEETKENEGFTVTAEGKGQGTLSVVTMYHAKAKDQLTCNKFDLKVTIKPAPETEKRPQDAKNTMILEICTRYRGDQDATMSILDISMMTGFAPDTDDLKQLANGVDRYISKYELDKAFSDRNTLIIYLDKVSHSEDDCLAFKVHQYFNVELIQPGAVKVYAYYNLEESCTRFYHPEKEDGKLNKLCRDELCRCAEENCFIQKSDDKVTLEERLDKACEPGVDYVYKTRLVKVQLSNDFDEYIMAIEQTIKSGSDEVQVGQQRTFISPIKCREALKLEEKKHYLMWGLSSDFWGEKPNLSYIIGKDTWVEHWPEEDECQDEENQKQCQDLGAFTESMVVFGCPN
UniProt Q9Y376: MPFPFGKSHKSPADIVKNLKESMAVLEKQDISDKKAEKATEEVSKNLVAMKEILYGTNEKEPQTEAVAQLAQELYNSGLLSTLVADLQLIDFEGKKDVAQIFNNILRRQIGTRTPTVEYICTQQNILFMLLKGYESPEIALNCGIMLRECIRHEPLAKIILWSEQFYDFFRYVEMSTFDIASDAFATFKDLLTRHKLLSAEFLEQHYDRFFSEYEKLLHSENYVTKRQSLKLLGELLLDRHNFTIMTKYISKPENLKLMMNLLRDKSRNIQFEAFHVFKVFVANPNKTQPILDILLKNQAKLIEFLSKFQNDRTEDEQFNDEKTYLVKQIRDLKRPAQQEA
UniProt Q5U649: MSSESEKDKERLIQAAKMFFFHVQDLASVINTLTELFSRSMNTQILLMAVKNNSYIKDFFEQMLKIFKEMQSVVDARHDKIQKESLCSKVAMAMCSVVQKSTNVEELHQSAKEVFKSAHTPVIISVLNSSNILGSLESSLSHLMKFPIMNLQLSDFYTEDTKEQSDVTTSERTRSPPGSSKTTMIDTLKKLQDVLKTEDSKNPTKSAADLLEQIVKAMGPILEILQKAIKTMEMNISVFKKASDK
UniProt Q96EU7: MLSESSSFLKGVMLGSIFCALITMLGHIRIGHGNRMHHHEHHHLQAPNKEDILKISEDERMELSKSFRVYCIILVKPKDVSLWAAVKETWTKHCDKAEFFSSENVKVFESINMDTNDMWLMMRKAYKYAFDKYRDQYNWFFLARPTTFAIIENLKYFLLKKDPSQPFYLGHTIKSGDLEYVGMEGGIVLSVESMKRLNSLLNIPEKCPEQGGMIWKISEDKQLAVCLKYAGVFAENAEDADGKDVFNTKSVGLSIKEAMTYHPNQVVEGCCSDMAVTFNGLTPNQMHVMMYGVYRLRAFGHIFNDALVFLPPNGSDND
UniProt Q0VDD7: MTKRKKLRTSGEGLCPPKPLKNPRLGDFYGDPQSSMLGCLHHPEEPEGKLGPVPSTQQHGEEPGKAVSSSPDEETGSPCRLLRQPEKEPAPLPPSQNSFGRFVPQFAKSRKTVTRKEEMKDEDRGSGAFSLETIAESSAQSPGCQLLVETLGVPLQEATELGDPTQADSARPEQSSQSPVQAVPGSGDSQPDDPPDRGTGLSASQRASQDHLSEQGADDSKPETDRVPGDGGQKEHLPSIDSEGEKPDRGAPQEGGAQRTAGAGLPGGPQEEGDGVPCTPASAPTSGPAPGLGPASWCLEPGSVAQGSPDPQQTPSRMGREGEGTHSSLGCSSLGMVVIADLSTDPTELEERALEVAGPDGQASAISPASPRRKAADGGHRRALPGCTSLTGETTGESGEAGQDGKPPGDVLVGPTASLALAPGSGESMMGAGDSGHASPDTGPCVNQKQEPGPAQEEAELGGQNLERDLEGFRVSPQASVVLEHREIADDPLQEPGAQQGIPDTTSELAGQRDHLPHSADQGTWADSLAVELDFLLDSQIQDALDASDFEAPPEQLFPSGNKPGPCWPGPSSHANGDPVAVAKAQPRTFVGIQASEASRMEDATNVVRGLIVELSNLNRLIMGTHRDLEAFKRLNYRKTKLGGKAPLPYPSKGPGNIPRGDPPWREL
UniProt Q99622: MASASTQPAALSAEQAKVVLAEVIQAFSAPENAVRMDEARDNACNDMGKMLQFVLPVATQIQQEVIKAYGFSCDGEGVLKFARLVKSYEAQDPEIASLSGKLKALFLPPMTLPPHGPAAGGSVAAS
UniProt Q96GV9: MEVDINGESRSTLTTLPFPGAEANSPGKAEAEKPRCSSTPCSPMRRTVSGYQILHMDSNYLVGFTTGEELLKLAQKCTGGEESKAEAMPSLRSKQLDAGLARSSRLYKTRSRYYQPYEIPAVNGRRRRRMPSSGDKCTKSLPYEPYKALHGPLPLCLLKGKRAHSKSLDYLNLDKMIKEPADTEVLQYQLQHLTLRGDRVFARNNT
UniProt Q9UFG5: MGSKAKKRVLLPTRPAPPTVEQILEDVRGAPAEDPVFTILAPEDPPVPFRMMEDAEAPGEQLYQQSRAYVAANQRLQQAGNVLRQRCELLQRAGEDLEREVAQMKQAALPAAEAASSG
UniProt Q96GQ5: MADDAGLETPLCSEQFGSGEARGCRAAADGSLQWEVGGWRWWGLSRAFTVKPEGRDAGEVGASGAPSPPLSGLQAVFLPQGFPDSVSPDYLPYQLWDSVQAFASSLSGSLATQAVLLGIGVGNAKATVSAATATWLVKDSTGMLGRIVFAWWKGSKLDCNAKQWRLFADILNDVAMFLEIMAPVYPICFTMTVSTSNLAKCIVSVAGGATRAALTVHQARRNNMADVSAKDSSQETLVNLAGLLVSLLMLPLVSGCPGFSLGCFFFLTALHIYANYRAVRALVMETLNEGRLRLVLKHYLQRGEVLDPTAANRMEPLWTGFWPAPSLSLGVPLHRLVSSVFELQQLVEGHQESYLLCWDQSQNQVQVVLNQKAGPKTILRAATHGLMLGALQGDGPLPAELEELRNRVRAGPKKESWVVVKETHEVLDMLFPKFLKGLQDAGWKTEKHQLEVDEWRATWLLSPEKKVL
UniProt Q6P5X5: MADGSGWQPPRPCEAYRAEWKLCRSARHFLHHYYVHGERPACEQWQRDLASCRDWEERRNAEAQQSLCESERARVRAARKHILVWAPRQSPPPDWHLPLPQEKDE

Key:
Assay in all cases: log2 fold change, soluble protein after heating vs DMSO (PISA); higher = thermal stabilisation; K562 lysate, 10 uM; active = over 0.2 and 3.5 SD of the protein, either way, in both replicates (recomputed)
nilotinib = compound: Cc1cn(-c2cc(NC(=O)c3ccc(C)c(Nc4nccc(-c5cccnc5)n4)c3)cc(C(F)(F)F)c2)cn1 [nilotinib]
Summary of the method: (§1)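 Thermal stability, expressed as log-two fold change relative to solvent controls, is given from duplicates. Crude K562 extract in PBS pH 7.4 with 1 mM MgCl2, at 1 mg/mL protein, was treated with 10 μM compound for 30 min and heated in aliquots for 3 min across 48°C-58°C. After pooling, adjustment to 0.5% NP-40 at 4°C and centrifugation at 21,000xg for 90 min, supernatant protein was measured by TMTpro 16plex LC-MS/MS with channel sums equalised.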

[1] = compound: Cc1nc(Nc2n[nH]c3c2CN(C(=O)N[C@H](CN(C)C)c2ccccc2)C3(C)C)c2sccc2n1
Summary of the method: as §1

dasatinib = compound: Cc1nc(Nc2ncc(C(=O)Nc3c(C)cccc3Cl)s2)cc(N2CCN(CCO)CC2)n1 [dasatinib]
Summary of the method: as §1

[2] = compound: Cc1ncc(-c2ccnc(Nc3ccc(S(C)(=O)=O)cc3)n2)n1C(C)C
Summary of the method: as §1

[3] = compound: Cn1cc(-c2ccc3c(c2)CCN3C(=O)Cc2cccc(C(F)(F)F)c2)c2c(N)ncnc21
Summary of the method: as §1

quisinostat = compound: Cn1cc(CNCC2CCN(c3ncc(C(=O)NO)cn3)CC2)c2ccccc21 [quisinostat]
Summary of the method: as §1

tipifarnib = compound: Cn1cncc1[C@@](N)(c1ccc(Cl)cc1)c1ccc2c(c1)c(-c1cccc(Cl)c1)cc(=O)n2C [tipifarnib]
Summary of the method: as §1

[4] = compound: NC(=O)Nc1cc(-c2cccc(F)c2)sc1C(=O)N[C@H]1CCCNC1
Summary of the method: as §1

[5] = compound: NC(=O)c1cnc(N[C@@H]2CCCC[C@@H]2N)nc1Nc1cccc(-n2nccn2)c1
Summary of the method: as §1

[6] = compound: NC1(c2ccc(-c3nc4ccn5c(=O)[nH]nc5c4cc3-c3ccccc3)cc2)CCC1
Summary of the method: as §1

Measured: log2 fold change

C15orf40 (UniProt Q8WUR7)
inactive: nilotinib 0.046 | [1] -0.069 | dasatinib 0.035 | [2] 0.11 | [3] -0.005 | quisinostat -0.016 | tipifarnib -0.113 | [4] -0.027 | [5] -0.023 | [6] -0.016

BZW2 (UniProt Q9Y6E2)
inactive: nilotinib 0.007 | [1] 0 | dasatinib -0.039 | [2] -0.008 | [3] 0.012 | quisinostat 0.097 | tipifarnib -0.003 | [4] 0.011 | [5] 0.002 | [6] 0.016

CALB2 (UniProt P22676)
inactive: nilotinib 0.098 | [1] -0.085 | dasatinib -0.037 | [2] 0.056 | [3] 0.016 | quisinostat 0.091 | tipifarnib -0.079 | [4] -0.006 | [5] -0.004 | [6] 0.046

C12orf29 (UniProt Q8N999)
inactive: nilotinib -0.036 | [1] -0.008 | dasatinib -0.026 | [2] 0.021 | [3] -0.025 | quisinostat -0.09 | tipifarnib -0.026 | [4] -0.033 | [5] 0.079 | [6] -0.029

CAPN15 (UniProt O75808)
inactive: nilotinib 0.018 | [1] -0.045 | dasatinib -0.124 | [2] 0.014 | [3] 0.007 | quisinostat 0 | tipifarnib 0.04 | [4] 0.025 | [5] -0.08 | [6] 0.054

CALCOCO2 isoform 4 (UniProt Q13137)
inactive: nilotinib -0.018 | [1] 0.035 | dasatinib -0.005 | [2] 0.035 | [3] 0.024 | quisinostat 0 | tipifarnib 0.021 | [4] 0.009 | [5] 0.003 | [6] -0.008

CACTIN isoform 2 (UniProt Q8WUQ7)
inactive: nilotinib 0 | [1] 0.012 | dasatinib -0.013 | [2] 0.011 | [3] -0.004 | quisinostat -0.027 | tipifarnib 0.066 | [4] -0.053 | [5] 0.002 | [6] 0.015

C3 (UniProt P01024)
inactive: nilotinib 0.001 | [1] 0.027 | dasatinib 0.069 | [2] -0.006 | [3] -0.022 | quisinostat -0.085 | tipifarnib 0.027 | [4] -0.025 | [5] -0.066 | [6] 0.012

BZW1 isoform 3 (UniProt Q7L1Q6)
inactive: nilotinib -0.005 | [1] -0.008 | dasatinib -0.032 | [2] -0.001 | [3] 0.035 | quisinostat 0.056 | tipifarnib -0.02 | [4] 0.012 | [5] 0.013 | [6] 0.023

CAB39 (UniProt Q9Y376)
inactive: nilotinib 0.009 | [1] -0.017 | dasatinib 0.008 | [2] -0.005 | [3] 0.042 | quisinostat 0.039 | tipifarnib 0.007 | [4] -0.015 | [5] 0 | [6] 0.014

C15orf39 (UniProt Q6ZRI6)
inactive: nilotinib 0.074 | [1] -0.006 | dasatinib -0.059 | [2] 0.019 | [3] 0.034 | quisinostat -0.017 | tipifarnib -0.015 | [4] 0.053 | [6] 0.184

CABIN1 (UniProt Q9Y6J0)
inactive: nilotinib 0.002 | [1] 0.081 | dasatinib -0.051 | [2] 0.134 | [3] 0.02 | tipifarnib -0.091 | [5] -0.149 | [6] 0.017

C12orf60 (UniProt Q5U649)
inactive: nilotinib 0.022 | [1] 0.016 | dasatinib 0.148 | [2] 0.061 | [3] -0.098 | quisinostat -0.021 | tipifarnib 0.099 | [4] -0.044 | [6] -0.024

C18orf25 isoform 2 (UniProt Q96B23)
inactive: nilotinib -0.026 | [1] -0.115 | dasatinib -0.025 | [2] -0.291 | [3] -0.056 | tipifarnib 0.076 | [5] 0.01 | [6] -0.071

CALCOCO2 isoform 5 (UniProt Q13137)
inactive: nilotinib -0.158 | [1] 0.238 | [2] 0.105 | tipifarnib -0.052

CAPN1 (UniProt E9PLX0)
inactive: nilotinib -0.063 | [1] 0.004 | [2] 0.253 | quisinostat 0.029 | tipifarnib 0.123 | [4] 0.134 | [5] -0.021

CA2 (UniProt P00918)
inactive: [1] -0.021 | dasatinib -0.076 | [2] 0.029 | [3] -0.042 | quisinostat 0.003 | tipifarnib 0.013 | [4] 0.054 | [5] 0.054 | [6] -0.069

Reprinted from the results shown (two entries):
CAPN1 (UniProt E9PLX0)
inactive: nilotinib -0.063 | [1] 0.004 | [2] 0.253 | quisinostat 0.029 | tipifarnib 0.123 | [4] 0.134 | [5] -0.021

CA2 (UniProt P00918)
inactive: [1] -0.021 | dasatinib -0.076 | [2] 0.029 | [3] -0.042 | quisinostat 0.003 | tipifarnib 0.013 | [4] 0.054 | [5] 0.054 | [6] -0.069

(cont.)

C1GALT1C1 (UniProt Q96EU7)
inactive: nilotinib 0.005 | [1] 0 | dasatinib -0.038 | [2] 0.048 | [3] 0.042 | quisinostat -0.028 | tipifarnib 0.033 | [4] 0.05 | [5] -0.026 | [6] -0.001

CAPNS1 (UniProt U3KPR7)
inactive: nilotinib -0.166 | [1] -0.416 | [2] 0.226 | tipifarnib 0.161 | [5] -0.214

C19orf57 (UniProt Q0VDD7)
inactive: dasatinib -0.078 | [3] -0.012

C12orf57 (UniProt Q99622)
inactive: nilotinib 0.209 | [1] 0.051 | dasatinib -0.234 | [2] -0.04 | [3] 0.102 | quisinostat -0.232 | tipifarnib 0.231 | [4] 0.118 | [6] -0.187

BTN3A3 (UniProt O00478)
inactive: nilotinib -0.275 | [1] -0.295 | dasatinib -0.087 | [2] 0.124 | [3] -0.036 | quisinostat 0.285 | tipifarnib 0.11 | [4] -0.015 | [6] 0.043

C6orf62 (UniProt Q9GZU0)
inactive: dasatinib 0.085 | [3] 0.739 | quisinostat 0.161 | [4] 0.211

CAMK1 (UniProt Q14012)
inactive: nilotinib -0.086 | [1] 0.04 | dasatinib 0.021 | [2] 0.064 | [3] 0.008 | quisinostat -0.12 | tipifarnib -0.071 | [4] 0.194 | [5] 0.018 | [6] -0.023

C6orf89 isoform 2 (UniProt Q6UWU4)
inactive: nilotinib 0.009 | [1] 0.102 | dasatinib 0.017 | [2] 0.018 | [3] -0.041 | quisinostat 0.081 | tipifarnib -0.091 | [4] -0.02 | [5] 0.063 | [6] 0.027

C19orf54 (UniProt Q5BKX5)
inactive: nilotinib 0.012 | [1] -0.006 | dasatinib -0.037 | [2] -0.016 | [3] 0.006 | quisinostat 0.006 | tipifarnib -0.007 | [4] 0.098 | [5] 0.016 | [6] 0.003

C5orf30 (UniProt Q96GV9)
inactive: nilotinib -0.061 | [1] 0.042 | dasatinib 0.097 | [2] -0.045 | [3] 0.071 | quisinostat 0.037 | tipifarnib -0.007 | [4] -0.031 | [6] 0.085

C19orf44 (UniProt Q9H6X5)
inactive: nilotinib 0.039 | [1] -0.207 | [2] 0.026 | tipifarnib -0.124

C19orf25 (UniProt Q9UFG5)
inactive: nilotinib 0.058 | [1] -0.043 | dasatinib 0.026 | [2] 0.081 | [3] -0.006 | quisinostat -0.008 | tipifarnib -0.065 | [4] 0.035 | [5] -0.026 | [6] -0.057

CAMSAP2 (UniProt Q08AD1)
inactive: nilotinib 0.156 | [1] -0.023 | dasatinib -0.072 | [2] 0.059 | [3] -0.03 | quisinostat -0.138 | tipifarnib -0.374 | [4] 0.011 | [6] -0.148

CAMKMT (UniProt Q7Z624)
inactive: nilotinib -0.002 | [1] 0.01 | dasatinib -0.115 | [2] 0.118 | [3] -0.043 | tipifarnib 0.084 | [5] 0.088

C16orf58 (UniProt Q96GQ5)
inactive: nilotinib -0.016 | [1] -0.011 | dasatinib -0.075 | [2] 0.033 | [3] -0.042 | quisinostat 0.06 | tipifarnib -0.05 | [4] -0.011 | [5] 0.021 | [6] -0.042

C22orf39 (UniProt Q6P5X5)
inactive: nilotinib 0.092 | [1] 0.027 | dasatinib -0.154 | [2] -0.026 | [3] 0.018 | tipifarnib -0.074 | [5] 0.081
